Experimental data reported in PubChem BioAssay AID493014 (National Center for Advancing Translational Sciences (NCATS), 2011).
This is one part of the list. Further columns of the screen follow, without active or inactive calls. Most of these compounds were active or inconclusive in the main read-out, so they are no random draw. The note in brackets gives the kind of curve behind each potency; many fits are weak.

Experiment: qHTS Assay to Find Inhibitors of Chronic Active B-Cell Receptor Signaling
Details: ABC-DLBCL IkBa-CBG/CBR reporter, luminescence ratio (green luciferase fused to IkBa over red control in TMD8 lymphoma cells), 4 h
Method in brief: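 Concentration-response series (up to 46 uM) were applied to TMD8 dual-reporter cells for 4 h at 37C with doxycycline. Green/red ratio, after filter-overlap correction, defined %Activity; red signal alone was normalised to basal cells and zero luminescence.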

[1] = measured here: CBR red luminescence, cell number

Row | Structure (SMILES) | AC50 [1] | AC50 (measured here: IkBa-CBG green luminescence)
1 | COc1ccc(N2CCN(c3nc(NC(C)(C)C)nc(N4CCCCC4)n3)CC2)cc1 | 20.6 µM [rising, partial curve, poor fit] | 
2 | CCNC(=S)Nc1cccc(S(=O)(=O)NC2=NCCC2)c1 | 35.5 µM [rising, single point] | 
3 | O=C(CSc1nnc2c(n1)[nH]c1ccccc12)Nc1ccc2c(c1)OCO2 | 0.206 µM [falling, full curve, poor fit] | 
4 | C/C(=N/NC(=O)CNC(=O)/C=C/c1ccccc1)c1ccco1 | 5.01 µM [rising, single point] | 
5 | O=c1c(-c2nc3ccccc3s2)cccn1Cc1ccc(Cl)cc1 | 2.51 µM [falling, single point] | 
6 | CCC(C)Nc1nc(OC)nc(N(C)C#N)n1 (stereo not drawn) | 6.31 µM [falling, single point] | 
7 | COc1ccc(C2/C(=C(/O)c3ccccc3)C(=O)C(=O)N2c2ncccn2)cc1OC (stereo not drawn) | 14.6 µM [rising, partial curve, poor fit] | 
8 | COc1cc2c(c(OC)c1OC)-c1ccc(N(C)CC(OC)OC)c(=O)cc1[C@@H](NC(C)=O)CC2 | 7.08 µM [rising, partial curve] | 6.31 µM [falling, partial curve]
9 | CCCCN(CCCC)C(=O)C1CC=CCC1C(=O)O (stereo not drawn) | 0.708 µM [falling, full curve, poor fit] | 
10 | O=C(CSc1nnc(CNc2ccc(F)cc2)o1)N1c2ccccc2Sc2ccccc21 | 3.16 µM [falling, single point] | 
11 | CCOc1ccc(N=C(NC#N)SCC)cc1 | 18.4 µM [rising, single point] | 
12 | Cc1sc2ncn(CC(=O)NCC3COc4ccccc4O3)c(=O)c2c1S(=O)(=O)N1CCOCC1 (stereo not drawn) | 0.282 µM [rising, full curve, poor fit] | 
13 | O=C(O)C1CC(=O)N(c2ccc(OCc3ccccc3)cc2)C1 (stereo not drawn) | 13 µM [falling, partial curve, poor fit] | 
14 | COc1ccc(Cc2nc3ccc(C(=O)NCCc4ccncc4)cc3o2)cc1OC | 4.47 µM [rising, partial curve, poor fit] | 
15 | Cc1cccc(C)c1OCCCCCNCCO | 32.6 µM [falling, partial curve, poor fit] | 
16 | Cc1ccc(C(=O)OCC(=O)Nc2ccccc2C(F)(F)F)cc1S(=O)(=O)N1CCCCC1 | 20.6 µM [rising, single point] | 
17 | CCOC(CCNC(=O)c1cn(CC(C)C)c(=O)c2c1c1ccccc1n2C)OCC | 3.55 µM [rising, full curve, poor fit] | 

Single values from above:
Value for COc1ccc(C2/C(=C(/O)c3ccccc3)C(=O)C(=O)N2c2ncccn2)cc1OC (stereo not drawn) under AC50 [1]: 14.6 µM [rising, partial curve, poor fit]
Value for O=C(CSc1nnc2c(n1)[nH]c1ccccc12)Nc1ccc2c(c1)OCO2 under AC50 [1]: 0.206 µM [falling, full curve, poor fit]
